No constants are given. Whether binding was seen depends on the method and setting. Some binding calls cover weakened binding; strength is not graded here.

Sequences of proteins named here, by UniProt entry; tags and fusion partners are left off. A change or cut given only in a name is not applied to a line headed by its entry.
UniProt P10275: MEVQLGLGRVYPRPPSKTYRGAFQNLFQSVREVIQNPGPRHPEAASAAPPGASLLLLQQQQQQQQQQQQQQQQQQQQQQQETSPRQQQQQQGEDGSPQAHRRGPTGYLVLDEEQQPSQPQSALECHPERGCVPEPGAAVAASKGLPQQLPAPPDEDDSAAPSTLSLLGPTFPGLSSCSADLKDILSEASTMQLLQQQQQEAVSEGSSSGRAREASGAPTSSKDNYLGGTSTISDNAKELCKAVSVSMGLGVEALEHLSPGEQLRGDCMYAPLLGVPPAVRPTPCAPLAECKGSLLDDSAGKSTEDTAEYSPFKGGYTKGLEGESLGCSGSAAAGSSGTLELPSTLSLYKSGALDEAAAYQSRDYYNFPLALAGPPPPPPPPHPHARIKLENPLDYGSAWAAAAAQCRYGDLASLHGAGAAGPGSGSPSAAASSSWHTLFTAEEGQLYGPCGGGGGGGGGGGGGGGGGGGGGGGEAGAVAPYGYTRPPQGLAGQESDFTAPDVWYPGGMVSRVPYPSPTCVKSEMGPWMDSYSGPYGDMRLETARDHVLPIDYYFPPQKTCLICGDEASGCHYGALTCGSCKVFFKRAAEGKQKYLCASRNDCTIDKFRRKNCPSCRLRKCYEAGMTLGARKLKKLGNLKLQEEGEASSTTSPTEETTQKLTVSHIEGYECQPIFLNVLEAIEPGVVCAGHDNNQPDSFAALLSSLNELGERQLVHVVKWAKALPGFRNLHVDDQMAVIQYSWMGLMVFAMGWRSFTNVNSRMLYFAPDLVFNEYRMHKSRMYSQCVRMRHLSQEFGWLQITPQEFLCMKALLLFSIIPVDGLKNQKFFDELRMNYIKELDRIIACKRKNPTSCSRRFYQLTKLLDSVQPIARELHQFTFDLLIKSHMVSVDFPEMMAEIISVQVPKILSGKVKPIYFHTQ
UniProt P05771: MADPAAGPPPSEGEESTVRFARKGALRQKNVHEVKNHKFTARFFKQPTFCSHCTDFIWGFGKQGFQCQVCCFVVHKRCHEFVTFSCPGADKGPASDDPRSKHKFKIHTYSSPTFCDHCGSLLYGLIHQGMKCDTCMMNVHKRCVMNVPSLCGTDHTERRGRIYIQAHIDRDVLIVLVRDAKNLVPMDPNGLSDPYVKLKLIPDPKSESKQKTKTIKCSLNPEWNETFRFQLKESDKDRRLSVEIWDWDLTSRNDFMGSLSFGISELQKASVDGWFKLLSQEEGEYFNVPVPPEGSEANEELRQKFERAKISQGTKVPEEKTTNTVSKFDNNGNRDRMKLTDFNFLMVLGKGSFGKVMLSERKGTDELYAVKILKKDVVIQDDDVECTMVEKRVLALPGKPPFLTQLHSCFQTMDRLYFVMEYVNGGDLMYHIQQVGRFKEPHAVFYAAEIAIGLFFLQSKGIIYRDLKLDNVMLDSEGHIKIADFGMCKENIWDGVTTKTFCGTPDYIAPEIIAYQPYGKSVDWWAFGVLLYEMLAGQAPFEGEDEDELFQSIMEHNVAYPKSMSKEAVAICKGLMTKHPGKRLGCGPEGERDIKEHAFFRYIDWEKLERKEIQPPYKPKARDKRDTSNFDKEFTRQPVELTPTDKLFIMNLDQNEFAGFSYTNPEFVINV

The experiment deals with androgen receptor (AR), endogenous in LNCaP cells (human) (UniProt P10275). The experiment is described as follows: Re-ChIP in R1881-treated LNCaP cells, first α-AR then α-PKCβI, KLK2 and FKBP5 promoters.

On to “protein kinase C beta 1 (PKCβI), endogenous in LNCaP cells (from UniProt P05771 2-671) (enzyme)”, for which the binding result is on record as “binds”.

The values above are taken from US20120329854A1, “Methods and Compounds for the Diagnosis and Treatment for Cancer” (UNIVERSITÄTSKLINIKUM FREIBURG, priority 2009, published 2012).
